Results from patent US11980774B2, “Illumination devices and related methods for phototherapeutic light treatments in the presence of vitamins” (priority 2021, dated 2024).
At least one structure is not confirmed: it was looked up by name or label, or the drawing left a doubt.

Tested on: human coronavirus OC43 (HCoV-OC43)
Experiment: 425 nm light inhibition of HCoV-OC43 in the presence of vitamins in artificial saliva, virus titer (PFU/mL)
Type: cell-based
Conditions: 0.1, 1, 10 μM AA alone, no riboflavin; 425 nm light 15 J/cm^2; FIG. 1D
Text: FIGS. 1A to 1D are provided in the context of HCoV-OC43, which is generally known as one of the viruses associated with the common cold. FIG. 1A is a chart illustrating an experimental control where light treatments were applied to HCoV-OC43 samples in the absence of any vitamins. […] A first sample included HCoV-OC43 in only its corresponding media, and the other two samples further included different artificial saliva sources (labeled as Saliva 1 and Saliva 2 in FIG. 1A).
FIG. 1B is a chart illustrating light treatments on HCoV-OC43 samples where various amounts of riboflavin (abbreviated as RFN) were diluted in a same type of artificial saliva and added to the HCoV-OC43 samples.
FIG. 1C is a chart illustrating light treatments on HCoV-OC43 samples where various amounts of ascorbate (abbreviated as AA) and 10 μM of RFN were diluted in a same type of artificial saliva and added to the HCoV-OC43 samples. […] The constant amount of RFN (10 μM) was selected based on the improvements illustrated in FIG. 1B.
FIG. 1D is a chart illustrating light treatments on HCoV-OC43 samples where various amounts of ascorbate were diluted in a same type of artificial saliva and added to the HCoV-OC43 samples in the absence of riboflavin.

Compound: O=C1O[C@H]([C@@H](O)CO)C(O)=C1O [ascorbate]
- changes in viral loads of HCoV-OC43: little to no changes
